In PMC10603234:
Results are given in words; binding and its absence hold for the method and conditions named. Binding seen in cells or lysates may run through a third protein. Some results given as binding are weak or reduced against the parent protein; the word gives no strength.

Amino acid sequences for entries named in this document (tags omitted). A change or cut given only in a name is not applied to a line headed by its entry.
UniProt P14416: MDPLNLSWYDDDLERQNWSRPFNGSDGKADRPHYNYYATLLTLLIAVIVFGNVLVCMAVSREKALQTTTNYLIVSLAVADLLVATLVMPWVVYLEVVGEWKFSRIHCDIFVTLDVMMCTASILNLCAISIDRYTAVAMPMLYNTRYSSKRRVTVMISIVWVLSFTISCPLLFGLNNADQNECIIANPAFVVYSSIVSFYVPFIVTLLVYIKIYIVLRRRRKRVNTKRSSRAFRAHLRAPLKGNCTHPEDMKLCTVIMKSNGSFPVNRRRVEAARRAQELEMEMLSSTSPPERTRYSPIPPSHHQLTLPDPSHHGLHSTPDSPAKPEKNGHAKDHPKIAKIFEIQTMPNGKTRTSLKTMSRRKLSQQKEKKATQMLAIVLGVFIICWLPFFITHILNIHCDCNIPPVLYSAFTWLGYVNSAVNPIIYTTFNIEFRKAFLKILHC
UniProt P30559: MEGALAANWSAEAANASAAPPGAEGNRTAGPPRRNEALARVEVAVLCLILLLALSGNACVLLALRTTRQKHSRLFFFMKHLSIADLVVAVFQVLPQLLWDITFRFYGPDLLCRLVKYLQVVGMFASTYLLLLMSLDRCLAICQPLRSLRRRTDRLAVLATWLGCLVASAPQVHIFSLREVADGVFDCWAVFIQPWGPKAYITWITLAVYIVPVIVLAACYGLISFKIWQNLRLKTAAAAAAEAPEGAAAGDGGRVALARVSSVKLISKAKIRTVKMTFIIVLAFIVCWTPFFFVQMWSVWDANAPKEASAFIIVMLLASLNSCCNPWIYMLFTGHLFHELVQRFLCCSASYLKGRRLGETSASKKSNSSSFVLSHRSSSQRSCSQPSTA

Molecular target: D2R-Rluc (UniProt P14416)
Assay: FRET or BRET; BRET2 saturation in HEK293T cells co-transfected with constant D2R-Rluc (1 ug) and increasing OXTR-GFP2 (0.25-9 ug) plasmid, coelenterazine-400a; vehicle or oxytocin (100 nM) + quinpirole (200 nM); also fixed-ratio cells with D2R and OXTR agonists and antagonists

binding: binds
Substance: OXTR-GFP2 (from UniProt P30559 1-389) (receptor)
